The values that follow come from US20250195488A1, “MEDICINE CONTAINING VITAMIN D DERIVATIVE OR PHARMACEUTICALLY ACCEPTABLE SALT OR SOLVATE THEREOF, USED IN COMBINATION WITH IMMUNOMODULATORY SUBSTANCE” (TEEJIN PHARMA LIMITED, priority 2022, published 2025).

The amount applied is not stated for every result.

This data set concerns rat oligodendrocyte progenitor cells. Briefly: Promotive activity of rat oligodendrocyte progenitor cell differentiation-2 (immunostaining of MBP). Type of data set: cell-based. The following applies: t-test vs DMSO group. As to the method:
The promotive activity of oligodendrocyte progenitor cell (OPC) differentiation of the vitamin D derivatives was evaluated by immunostaining of MBP.
Subsequently, oligodendrocyte progenitor cell separation medium was added to the flask, and the mixture was similarly shaken for about 22 hours (37° C., 200 rpm), and the supernatant was collected to prepare oligodendrocyte progenitor cells.

With `C=C1/C(=C\C=C2/CCC[C@]3(C)[C@@H]([C@H](C)CN4CCCC[C@@H]4C)CC[C@@H]23)C[C@@H](O)C[C@@H]1O` [Compound F001, (1R,3S,Z)-5-(2-((1R,3aS,7aR,E)-7a-methyl-1-((S)-1-((S)-2-methylpiperidin-1-yl)propan-2-yl)octahydro-4H-inden-4-ylidene)ethylidene)-4-methylenecyclohexane-1,3-diol], the Significant difference result (Test 7) is recorded as “** (<0.01)”.
For `C[C@H](CN1CCCC[C@@H]1C)[C@H]1CC[C@H]2/C(=C/C=C3C[C@@H](O)C[C@H](O)C3)CCC[C@]12C` [Compound G001, (1R,3R)-5-(2-((1R,3aS,7aR,E)-7a-methyl-1-((S)-1-((S)-2-methylpiperidin-1-yl)propan-2-yl)octahydro-4H-inden-4-ylidene)ethylidene)cyclohexane-1,3-diol], the Significant difference result (Test 3) is listed as “**** (<0.0001)”.
In the case of `C=C1[C@H](O)CC(=C/C=C2\CCC[C@]3(C)[C@@H]([C@H](C)CN4CCC[C@H]4C(C)(C)OC)CC[C@@H]23)C[C@H]1O` [Compound H016, (1R,3R)-5-(2-((1R,3aS,7aR,E)-1-((S)-1-((S)-2-(2-methoxypropan-2-yl)pyrrolidin-1-yl)propan-2-yl)-7a-methyloctahydro-4H-inden-4-ylidene)ethylidene)-2-methylenecyclohexane-1,3-diol], the Significant difference entry (Test 8) is on record as “** (<0.01)”.
`C=C1/C(=C\C=C2/CCC[C@]3(C)[C@@H]([C@H](C)CN4CCOC[C@@H]4C)CC[C@@H]23)C[C@@H](O)C[C@@H]1O` [Compound F004, (1R,3S,Z)-5-(2-((1R,3aS,7aR,E)-7a-methyl-1-((S)-1-((S)-3-methylmorpholino)propan-2-yl)octahydro-4H-inden-4-ylidene)ethylidene)-4-methylenecyclohexane-1,3-diol]: the Significant difference entry (Test 3) is on record as “**** (<0.0001)”.
As for `C=C1/C(=C\C=C2/CCC[C@]3(C)[C@@H]([C@H](C)CN4CC[C@@H](C(F)F)C4)CC[C@@H]23)C[C@@H](O)C[C@@H]1O` [Compound B024, (1R,3S,Z)-5-(2-((1R,3aS,7aR,E)-1-((S)-1-((R)-3-(difluoromethyl)pyrrolidin-1-yl)propan-2-yl)-7a-methyloctahydro-4H-inden-4-ylidene)ethylidene)-4-methylenecyclohexane-1,3-diol], the Significant difference entry (Test 1) was “**** (<0.0001)”.
`C=C1/C(=C\C=C2/CCC[C@]3(C)[C@@H]([C@H](C)CN4CCOC[C@H]4C)CC[C@@H]23)C[C@@H](O)C[C@H]1O` [Compound I005, (1R,3R,Z)-5-(2-((1R,3aS,7aR,E)-7a-methyl-1-((S)-1-((R)-3-methylmorpholino)propan-2-yl)octahydro-4H-inden-4-ylidene)ethylidene)-4-methylenecyclohexane-1,3-diol]: where the note is “Test 4”, the Significant difference entry is listed as “**** (<0.0001)”.
For `C=C1/C(=C\C=C2/CCC[C@]3(C)[C@@H]([C@H](C)CN4CCC[C@@H]4C(C)(C)OC)CC[C@@H]23)C[C@@H](O)C[C@@H]1O` [Compound F015, (1R,3S,Z)-5-(2-((1R,3aS,7aR,E)-1-((S)-1-((R)-2-(2-methoxypropan-2-yl)pyrrolidin-1-yl)propan-2-yl)-7a-methyloctahydro-4H-inden-4-ylidene)ethylidene)-4-methylenecyclohexane-1,3-diol], the Significant difference result (Test 8) is given as “*** (<0.001)”.
With `C=C1/C(=C\C=C2/CCC[C@]3(C)[C@@H]([C@H](C)CN4CCC[C@H]4C(C)(C)O)CC[C@@H]23)C[C@@H](O)C[C@@H]1O` [Compound F014, (1R,3S,Z)-5-(2-((1R,3aS,7aR,E)-1-((S)-1-((S)-2-(2-hydroxypropan-2-yl)pyrrolidin-1-yl)propan-2-yl)-7a-methyloctahydro-4H-inden-4-ylidene)ethylidene)-4-methylenecyclohexane-1,3-diol], the Significant difference entry (Test 8) is listed as “*** (<0.001)”.
For the compound `C=C1/C(=C\C=C2/CCC[C@]3(C)[C@@H]([C@H](C)CN4CCOC[C@@H]4C4CC4)CC[C@@H]23)C[C@@H](O)C[C@@H]1O` [Compound F008, (1R,3 S,Z)-5-(2-((1R,3aS,7aR,E)-1-((S)-1-((S)-3-cyclopropylmorpholino)propan-2-yl)-7a-methyloctahydro-4H-inden-4-ylidene)ethylidene)-4-methylenecyclohexane-1,3-diol], the Significant difference result (Test 5) is listed as “**** (<0.0001)”.
Turning to `C=C1/C(=C\C=C2/CCC[C@]3(C)[C@@H]([C@H](C)CN4CCOC[C@@H]4C)CC[C@@H]23)C[C@@H](O)C[C@H]1O` [Compound I004, (1R,3R,Z)-5-(2-((1R,3aS,7aR,E)-7a-methyl-1-((S)-1-((S)-3-methylmorpholino)propan-2-yl)octahydro-4H-inden-4-ylidene)ethylidene)-4-methylenecyclohexane-1,3-diol], where the note is “Test 4”, the Significant difference result is given as “**** (<0.0001)”.
As to `C=C1[C@H](O)CC(=C/C=C2\CCC[C@]3(C)[C@@H]([C@H](C)CN4CC[C@H](CC(F)F)C4)CC[C@@H]23)C[C@H]1O` [Compound B040, (1R,3R)-5-(2-((1R,3aS,7aR,E)-1-((S)-1-((R)-3-(2,2-difluoroethyl)pyrrolidin-1-yl)propan-2-yl)-7a-methyloctahydro-4H-inden-4-ylidene)ethylidene)-2-methylenecyclohexane-1,3-diol], where the note is “Test 1”, the Significant difference entry was “**** (<0.0001)”.
As to `C=C1/C(=C\C=C2/CCC[C@]3(C)[C@@H]([C@H](C)CN4CCN(C)C[C@@H]4C)CC[C@@H]23)C[C@@H](O)C[C@@H]1O` [Compound F011, (1R,3S,Z)-5-(2-((1R,3aS,7aR,E)-1-((S)-1-((S)-2,4-dimethylpiperazin-1-yl)propan-2-yl)-7a-methyloctahydro-4H-inden-4-ylidene)ethylidene)-4-methylenecyclohexane-1,3-diol], the Significant difference entry (Test 5) was “*** (<0.001)”.
Regarding `C=C1/C(=C\C=C2/CCC[C@]3(C)[C@@H]([C@H](C)CN4CCCCC4(C)C)CC[C@@H]23)C[C@@H](O)C[C@@H]1O` [Compound F003, (1R,3S,Z)-5-(2-((1R,3aS,7aR,E)-1-((S)-1-(2,2-dimethylpiperidin-1-yl)propan-2-yl)-7a-methyloctahydro-4H-inden-4-ylidene)ethylidene)-4-methylenecyclohexane-1,3-diol], the Significant difference entry (Test 7) is recorded as “** (<0.01)”.
With `C=C1[C@H](O)CC(=C/C=C2\CCC[C@]3(C)[C@@H]([C@H](C)CN4CCCC[C@@H]4C)CC[C@@H]23)C[C@H]1O` [Compound H001, (1R,3R)-5-(2-((1R,3aS,7aR,E)-7a-methyl-1-((S)-1-((S)-2-methylpiperidin-1-yl)propan-2-yl)octahydro-4H-inden-4-ylidene)ethylidene)-2-methylenecyclohexane-1,3-diol], the Significant difference result (Test 7) was “**** (<0.0001)”.
With `C=C1/C(=C\C=C2/CCC[C@]3(C)[C@@H]([C@H](C)CN4CCOC[C@H]4C)CC[C@@H]23)C[C@@H](O)C[C@@H]1O` [Compound F005, (1R,3S,Z)-5-(2-((1R,3aS,7aR,E)-7a-methyl-1-((S)-1-((R)-3-methylmorpholino)propan-2-yl)octahydro-4H-inden-4-ylidene)ethylidene)-4-methylenecyclohexane-1,3-diol], the Significant difference result (Test 3) is reported as “**** (<0.0001)”.
Consider `C[C@H](CN1CC[C@H](OC(F)F)C1)[C@H]1CC[C@H]2/C(=C/C=C3C[C@@H](O)C[C@H](O)C3)CCC[C@]12C` [Compound B051, (1R,3R)-5-(2-((1R,3aS,7aR,E)-1-((S)-1-((S)-3-(difluoromethoxy)pyrrolidin-1-yl)propan-2-yl)-7a-methyloctahydro-4H-inden-4-ylidene)ethylidene)cyclohexane-1,3-diol], for which the Significant difference result (Test 2) is “**** (<0.0001)”.
Consider `C=C1[C@H](O)CC(=C/C=C2\CCC[C@]3(C)[C@@H]([C@H](C)CN4CCC[C@H]4C(C)(C)O)CC[C@@H]23)C[C@H]1O` [Compound H014, (1R,3R)-5-(2-((1R,3aS,7aR,E)-1-((S)-1-((S)-2-(2-hydroxypropan-2-yl)pyrrolidin-1-yl)propan-2-yl)-7a-methyloctahydro-4H-inden-4-ylidene)ethylidene)-2-methylenecyclohexane-1,3-diol], for which, under “Test 8”, the Significant difference result is “**** (<0.0001)”.
For the compound `C=C1/C(=C\C=C2/CCC[C@]3(C)[C@@H]([C@H](C)CN4CCOCC4(C)C)CC[C@@H]23)C[C@@H](O)C[C@@H]1O` [Compound F006, (1R,3S,Z)-5-(2-((1R,3aS,7aR,E)-1-((S)-1-(3,3-dimethylmorpholino)propan-2-yl)-7a-methyloctahydro-4H-inden-4-ylidene)ethylidene)-4-methylenecyclohexane-1,3-diol], the Significant difference entry (Test 4) was “**** (<0.0001)”.
As to `C=C1[C@H](O)CC(=C/C=C2\CCC[C@]3(C)[C@@H]([C@H](C)CN4CCC[C@@H]4C(C)(C)O)CC[C@@H]23)C[C@H]1O` [Compound H013, (1R,3R)-5-(2-((1R,3aS,7aR,E)-1-((S)-1-((R)-2-(2-hydroxypropan-2-yl)pyrrolidin-1-yl)propan-2-yl)-7a-methyloctahydro-4H-inden-4-ylidene)ethylidene)-2-methylenecyclohexane-1,3-diol], the Significant difference result (Test 8) is listed as “**** (<0.0001)”.
For the compound `C=C1[C@H](O)CC(=C/C=C2\CCC[C@]3(C)[C@@H]([C@H](C)CN4CC[C@H](C(F)F)C4)CC[C@@H]23)C[C@H]1O` [Compound B023, (1R,3R)-5-(2-((1R,3aS,7aR,E)-1-((S)-1-((S)-3-(difluoromethyl)pyrrolidin-1-yl)propan-2-yl)-7a-methyloctahydro-4H-inden-4-ylidene)ethylidene)-2-methylenecyclohexane-1,3-diol], under “Test 1”, the Significant difference entry is on record as “**** (<0.0001)”.
Consider `COC(C)(C)[C@@H]1CCCN1C[C@@H](C)[C@H]1CC[C@H]2/C(=C/C=C3C[C@@H](O)C[C@H](O)C3)CCC[C@]12C` [Compound G016, (1R,3R)-5-(2-((1R,3aS,7aR,E)-1-((S)-1-((S)-2-(2-methoxypropan-2-yl)pyrrolidin-1-yl)propan-2-yl)-7a-methyloctahydro-4H-inden-4-ylidene)ethylidene)cyclohexane-1,3-diol], for which, under “Test 7”, the Significant difference result was “*** (<0.001)”.
